From patent publication US12472201B2, “Complexing agent salt formulations of pharmaceutical compounds” (Bexson Biomedical, Inc., priority 2020, dated 2025)
Some entries share one result that the patent states for a list of compounds.

Assay: Theoretical vs measured osmolarities of API-Cap formulations
Type: physicochemical
Conditions: measured osmolality vs calculated osmolarity, API-Cap Formulations at 70 mg/mL freebase equivalents; listed as morphine

SMILES: CN1CC[C@]23c4c5ccc(O)c4O[C@H]2[C@@H](O)C=C[C@H]3[C@H]1C5 [Morphine]
- Percentage of Theoretical: less than 65%
